Source: the supplement of paper PMC12009310
Counter-ions that a name gives are not always drawn. ± gives the standard deviation of the averaged measurements. The list shows a part of the results. Plates or batches differ in their baseline, so values are only roughly comparable.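 The cells are a mouse kidney inner medullary collecting duct line, silenced either for the ciliary gene Rpgrip1l or with a non-targeting control siRNA.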

How the values were obtained:
mIMCD3 [1] = experiment: robust z score of cell number vs plate controls; higher = more cells (less cytotoxic); conditions: 10 µM, 48 h
mIMCD3 [2] = experiment: robust z score of cilia incidence (% cells with single cilium) vs plate controls; higher = more ciliated cells; conditions: 10 µM; 48 h; siRNA: siScr
mIMCD3 [3] = experiment: robust z score of cilia incidence (% cells with single cilium) vs plate controls; higher = more ciliated cells (rescue of cilia loss); conditions: 10 µM; 48 h; siRNA: siRpgrip1l

c1cc2c3c(c1)c1c(n3CCNC2)CCCC1 [WAY 629 hydrochloride]
robust z score of cell number (mIMCD3 [1]; siRNA: siRpgrip1l): -1.78 ± 2.6
robust z score of cell number (mIMCD3 [1]; siRNA: siScr): -4.82 ± 3.3
robust z score of cilia incidence (mIMCD3 [2]): -2.62 ± 1.7
robust z score of cilia incidence (mIMCD3 [3]): -18.7 ± 16

Cc1cc(C(=O)O)sc1C(N)C(=O)O (configuration not stated)
robust z score of cell number (mIMCD3 [1]; siRNA: siRpgrip1l): -1.55 ± 2.3
robust z score of cell number (mIMCD3 [1]; siRNA: siScr): -2.82 ± 4.3
robust z score of cilia incidence (mIMCD3 [2]): 1.04 ± 1.6
robust z score of cilia incidence (mIMCD3 [3]): -7.1 ± 2.4

CCCCCS(=O)(=O)CCCCCCCCCCn1c(-c2ccc(O)cc2)c(C)c2cc(O)ccc21
robust z score of cell number (mIMCD3 [1]; siRNA: siRpgrip1l): -40.8 ± 26
robust z score of cell number (mIMCD3 [1]; siRNA: siScr): -54.5 ± 29
robust z score of cilia incidence (mIMCD3 [2]): -33.6 ± 15
robust z score of cilia incidence (mIMCD3 [3]): -59.6 ± 13

COc1ccccc1N1CCN(CC(O)COc2cccc3ccccc23)CC1 (configuration not stated) [Naftopidil hydrochloride]
robust z score of cell number (mIMCD3 [1]; siRNA: siRpgrip1l): -11.1 ± 11
robust z score of cell number (mIMCD3 [1]; siRNA: siScr): -32 ± 39
robust z score of cilia incidence (mIMCD3 [2]): -0.533 ± 1.8
robust z score of cilia incidence (mIMCD3 [3]): -10.3 ± 3.6

C[N+]1(C)CCC(OC(=O)C(c2ccccc2)c2ccccc2)CC1
robust z score of cell number (mIMCD3 [1]; siRNA: siRpgrip1l): -3.37 ± 2.6
robust z score of cell number (mIMCD3 [1]; siRNA: siScr): -11.5 ± 13
robust z score of cilia incidence (mIMCD3 [2]): 2.5 ± 1.6
robust z score of cilia incidence (mIMCD3 [3]): 0.338 ± 0.34

Nc1nc2c(nc(Br)n2[C@@H]2O[C@@H]3COP(=O)(O)O[C@H]3[C@H]2O)c(=O)[nH]1 [8-Bromo-cGMP, sodium salt]
robust z score of cell number (mIMCD3 [1]; siRNA: siRpgrip1l): -12 ± 9.8
robust z score of cell number (mIMCD3 [1]; siRNA: siScr): 1.66 ± 4.6
robust z score of cilia incidence (mIMCD3 [2]): 1.54 ± 2.2
robust z score of cilia incidence (mIMCD3 [3]): -15.5 ± 0.32

O=C1OC(OC(=O)c2cccnc2Nc2cccc(C(F)(F)F)c2)c2ccccc21 (configuration not stated) [Talniflumate]
robust z score of cell number (mIMCD3 [1]; siRNA: siRpgrip1l): -15.8 ± 7.2
robust z score of cell number (mIMCD3 [1]; siRNA: siScr): -74.8 ± 73
robust z score of cilia incidence (mIMCD3 [2]): -8.31 ± 7.4
robust z score of cilia incidence (mIMCD3 [3]): -20.6 ± 5.1

CC[C@@H]1Cn2c(c3nc(-c4ccccc4)nc-3n(C)c2=O)N1
robust z score of cell number (mIMCD3 [1]; siRNA: siRpgrip1l): 0.102 ± 1.4
robust z score of cell number (mIMCD3 [1]; siRNA: siScr): -3.29 ± 6.4
robust z score of cilia incidence (mIMCD3 [2]): 2.43 ± 2.4
robust z score of cilia incidence (mIMCD3 [3]): -9.19 ± 0.87

CCc1cc(Cl)c(OC)c(C(=O)NC[C@@H]2CCCN2CC)c1O [Eticlopride hydrochloride]
robust z score of cell number (mIMCD3 [1]; siRNA: siRpgrip1l): -38.7 ± 34
robust z score of cell number (mIMCD3 [1]; siRNA: siScr): -40.6 ± 26
robust z score of cilia incidence (mIMCD3 [2]): -111 ± 53
robust z score of cilia incidence (mIMCD3 [3]): -122 ± 110

COc1cccc(OC)c1OCCNCC1COc2ccccc2O1 (configuration not stated) [WB 4101 hydrochloride]
robust z score of cell number (mIMCD3 [1]; siRNA: siRpgrip1l): -13.1 ± 1.6
robust z score of cell number (mIMCD3 [1]; siRNA: siScr): -10.1 ± 7.4
robust z score of cilia incidence (mIMCD3 [2]): -21.6 ± 7.1
robust z score of cilia incidence (mIMCD3 [3]): -20.5 ± 3.8

CC(C)NCC(O)c1ccc(O)c(O)c1 (configuration not stated) [Isoproterenol hydrochloride]
robust z score of cell number (mIMCD3 [1]; siRNA: siRpgrip1l): -10.4 ± 8.7
robust z score of cell number (mIMCD3 [1]; siRNA: siScr): -10.2 ± 4.6
robust z score of cilia incidence (mIMCD3 [2]): -15.7 ± 17
robust z score of cilia incidence (mIMCD3 [3]): -22.8 ± 6.4

COC(=O)C1=C(C)NC(C)=C(C(=O)OCCCN2CCC(c3ccccc3)(c3ccccc3)CC2)[C@H]1c1cccc([N+](=O)[O-])c1 [(S)-(+)-Niguldipine hydrochloride]
robust z score of cell number (mIMCD3 [1]; siRNA: siRpgrip1l): -56.8 ± 46
robust z score of cell number (mIMCD3 [1]; siRNA: siScr): -22.8 ± 5
robust z score of cilia incidence (mIMCD3 [2]): -24 ± 2.9
robust z score of cilia incidence (mIMCD3 [3]): -39.2 ± 7.1

COc1cc2ncnc(Nc3ccc(Oc4ccccc4)cc3)c2cc1OC
robust z score of cell number (mIMCD3 [1]; siRNA: siRpgrip1l): -51.4 ± 67
robust z score of cell number (mIMCD3 [1]; siRNA: siScr): 1.15 ± 5.6
robust z score of cilia incidence (mIMCD3 [2]): -0.0244 ± 0.9
robust z score of cilia incidence (mIMCD3 [3]): -9.13 ± 1.4

O=C(O)CCc1ccc(NCc2cccc(Oc3ccccc3)c2)cc1
robust z score of cell number (mIMCD3 [1]; siRNA: siRpgrip1l): -10.5 ± 4.8
robust z score of cell number (mIMCD3 [1]; siRNA: siScr): -54.6 ± 53
robust z score of cilia incidence (mIMCD3 [2]): -3.94 ± 6.2
robust z score of cilia incidence (mIMCD3 [3]): -20.9 ± 4

O=[N+]([O-])c1cc(Cl)ccc1S(=O)(=O)N1CCN(Cc2ccccc2)CC1
robust z score of cell number (mIMCD3 [1]; siRNA: siRpgrip1l): -8.94 ± 6
robust z score of cell number (mIMCD3 [1]; siRNA: siScr): -2.08 ± 1.3
robust z score of cilia incidence (mIMCD3 [2]): -0.665 ± 2.5
robust z score of cilia incidence (mIMCD3 [3]): -10.8 ± 2.6

CCCn1c(=O)c(C)cn2nc(N)nc12
robust z score of cell number (mIMCD3 [1]; siRNA: siRpgrip1l): -0.531 ± 0.51
robust z score of cell number (mIMCD3 [1]; siRNA: siScr): -1.51 ± 1.4
robust z score of cilia incidence (mIMCD3 [2]): 4.01 ± 5.9
robust z score of cilia incidence (mIMCD3 [3]): -27.8 ± 25

Cc1nnc(-c2ccc3occ(-c4ccc([S+](C)[O-])cc4)c3c2)o1 (configuration not stated)
robust z score of cell number (mIMCD3 [1]; siRNA: siRpgrip1l): 6.23 ± 7.7
robust z score of cell number (mIMCD3 [1]; siRNA: siScr): 0.817 ± 6.5
robust z score of cilia incidence (mIMCD3 [2]): 1.18 ± 1.4
robust z score of cilia incidence (mIMCD3 [3]): -10.8 ± 8.4

COc1cc2ncn(-c3cc(OCc4ccccc4C(F)(F)F)c(C(N)=O)s3)c2cc1OC
robust z score of cell number (mIMCD3 [1]; siRNA: siRpgrip1l): -25.7 ± 24
robust z score of cell number (mIMCD3 [1]; siRNA: siScr): -12.2 ± 12
robust z score of cilia incidence (mIMCD3 [2]): -15 ± 11
robust z score of cilia incidence (mIMCD3 [3]): -17.3 ± 2
